Results: PubChem BioAssay AID1671190 (National Center for Advancing Translational Sciences (NCATS), 2021)
Several values for one entry are separate records, joined by “and”; a condition that tells them apart may be missing. Equal values may be shown once. In all, about 580,000 compounds went through this assay and about 6,100 (1.1%) were called active. Inconclusive results, whose numbers are uncertain, are shown with a selection of clear calls. Calls come from the whole dose curve; as a rule, active = well fitted inhibition curve with a large enough effect; inconclusive = small, poorly fitted or top-dose-only effect, or another doubt; inactive = no such curve, though single readings can be large or run the other way. A potency beside an inconclusive call is a rough fit, not a confirmed value. A structure can be active in one record and inactive in another.

Chains of the proteins cited; added tags and fusions are not shown. Lines headed by an entry give the natural chain unless they say otherwise; changes in a name come on top.
UniProt P18054: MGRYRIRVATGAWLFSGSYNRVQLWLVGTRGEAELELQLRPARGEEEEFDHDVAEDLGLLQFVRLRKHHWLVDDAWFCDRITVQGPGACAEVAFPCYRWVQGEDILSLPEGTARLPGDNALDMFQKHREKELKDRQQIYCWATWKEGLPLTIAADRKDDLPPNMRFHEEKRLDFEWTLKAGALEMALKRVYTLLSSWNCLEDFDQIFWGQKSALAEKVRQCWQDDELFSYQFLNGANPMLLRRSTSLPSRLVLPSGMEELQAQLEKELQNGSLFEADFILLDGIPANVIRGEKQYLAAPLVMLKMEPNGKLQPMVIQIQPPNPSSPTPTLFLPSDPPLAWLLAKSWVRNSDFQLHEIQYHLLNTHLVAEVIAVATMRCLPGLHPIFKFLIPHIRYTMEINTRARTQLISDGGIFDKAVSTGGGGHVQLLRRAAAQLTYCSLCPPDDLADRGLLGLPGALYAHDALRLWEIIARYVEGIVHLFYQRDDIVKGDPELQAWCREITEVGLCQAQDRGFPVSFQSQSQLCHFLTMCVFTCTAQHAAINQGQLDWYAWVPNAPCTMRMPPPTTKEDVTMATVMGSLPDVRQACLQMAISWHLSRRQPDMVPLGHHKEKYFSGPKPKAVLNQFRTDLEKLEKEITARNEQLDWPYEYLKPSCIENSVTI

target: Polyunsaturated fatty acid lipoxygenase ALOX12 (Homo sapiens) (UniProt P18054); assay: Primary qHTS assay for inhibitors of human arachidonate 12S-lipoxygenase (ALOX12): Round 2; details: purified 12hLO, xylenol orange hydroperoxide absorbance; activity change, negative = inhibition: at 108 µM (top of the series) unless noted
Method in brief: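 Purified human 12hLO (150 nM final) in 25 mM Hepes, 0.01% Triton X-100, pH 7.0 was preincubated 15 min at room temperature with compound. Then 40 uM arachidonic acid was added, 30 min. Hydroperoxide was read by Fe-XO absorbance ratio 573/405 nm.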
% is set by controls: 0 for no effect and ±100 for the full control effect; potency is the fitted concentration of half-maximal effect.

Row | SMILES | Potency | activity change, negative = inhibition
1 | C[N+]1(C2CCC3CCCC2C3O)CCCCC1 (centres undefined) | inconclusive: 44.7 µM [inhibitor, partial curve, poor fit] | –
2 | CCc1ccccc1NC(=O)Cn1cnc2c(cnn2-c2cc(Cl)ccc2C)c1=O | inconclusive: 35.5 µM [inhibitor, partial curve, poor fit] | –
3 | COc1cccc(N2CCN(C(=O)c3ccccc3SCC(=O)NCc3ccco3)CC2)c1 | inconclusive: 50.1 µM [inhibitor, partial curve, poor fit] | –
4 | O=C(O)C(c1c[nH]c2ccc(Br)cc12)N1CCN(CCOc2ccc(Cl)cc2)CC1 (centres undefined) | – | inactive: -26.3%
5 | O=C(Nc1ccc2nc(-c3ccco3)c(-c3ccco3)nc2c1)N1CCN(c2ccccn2)CC1 | inconclusive: 14.1 µM [inhibitor, partial curve] | –
6 | C(=N\Nc1cccc2cccnc12)/c1c[nH]c2ccccc12 | active: 31.6 µM | –
7 | Cc1nc2ccccc2n1C1CCN(CC(=O)Nc2ccccc2Br)CC1 | – | inactive: -0.115%
8 | CCOc1ccc(/C(O)=C2\C(=O)C(=O)NC2c2ccc(Cl)cc2)cc1 (centres undefined) | inconclusive: 31.6 µM [inhibitor, full curve, poor fit] | –
9 | CCc1ccc(NC(=O)Cn2ccn3nc4c(c3c2=O)CCCCC4)cc1 | inconclusive: 14.1 µM [inhibitor, full curve] | –
10 | COc1ccc(C(=O)/C(C#N)=C\c2ccc(OC(F)F)c(OC)c2)cc1 | inconclusive: 12.6 µM [inhibitor, full curve, poor fit] | –
11 | CC(C)n1cc(C(=O)N2C[C@@H](CN3CCOCC3)[C@@H](CO)C2)cn1 | – | inactive: 10.1%
12 | CCCc1c(C(=O)Nc2ccc(C(F)(F)F)cc2)cnn1-c1ccccc1 | inconclusive: 100 µM [inhibitor, partial curve, poor fit] | –
13 | COCCN(CCOC)Cc1cc(=O)oc2cc(OC)ccc12 | inconclusive: 28.2 µM [inhibitor, partial curve] | –
14 | COCCn1c(SCC(=O)Nc2ccc3[nH]c(=O)[nH]c3c2)nc2ccccc2c1=O | – | inactive: -0.963%
15 | COc1ccc(C2/C(=C(\O)c3ccc4c(c3)OCCO4)C(=O)C(=O)N2CCCN(C)C)c(OC)c1 (centres undefined) | inconclusive: 35.5 µM [inhibitor, partial curve, poor fit] | –
16 | CC(O)[C@H]1CNC(=O)C(=O)N1CC1CCCCC1 (some centres undefined) | inconclusive: 79.4 µM [inhibitor, single point] | –
17 | CCn1cnc2c1c(=O)n(CC(=O)Nc1c(C)cccc1C)c(=O)n2Cc1ccccc1 | inconclusive: 79.4 µM [inhibitor, partial curve, poor fit] | –
18 | Cc1[nH]nc2c1C(c1ccc(Br)cc1)N(c1ccc(Br)cc1)C2=O (centres undefined) | inconclusive: 14.1 µM [inhibitor, full curve, poor fit] | –
19 | Fc1ccc(NC(=S)N2CCCN(c3ccc(C(F)(F)F)cn3)CC2)c(F)c1 | – | inactive: 237%
20 | C[C@](O)(C(=O)Nc1ccc(S(=O)(=O)c2ccccc2)cc1)C(F)(F)F | inconclusive: 39.8 µM [inhibitor, single point] | –
21 | CCCc1noc(-c2ccn3c(CNC(=O)Cc4ccccc4Cl)nnc3c2)n1 | active: 44.7 µM | –

Row | SMILES | Potency | activity change, negative = inhibition
22 | Cn1c(-c2sccc2OCc2cccc(C(F)(F)F)c2)n[nH]c1=S | active: 28.2 µM | –
23 | CCOc1ccc(N2CC(C(=O)Nc3nnc(CC)s3)CC2=O)cc1 (centres undefined) | inconclusive: 56.2 µM [inhibitor, partial curve, poor fit] | –
24 | COc1ccc(C(=O)OCC(=O)NC2CCC(C)CC2)cc1OC (centres undefined) | – | inactive: 22.4%
25 | O=C(CSc1n[nH]c(-c2ccccc2Cl)n1)N1CCN(c2ccccc2F)CC1 | – | inactive: -14.4%
26 | CCc1nnc(NC(=O)CSc2nccn2-c2cccc(C)c2)s1 | inconclusive: 100 µM [inhibitor, single point] | –
27 | O=C(c1cccc2ccccc12)N(Cc1ccc2cc[nH]c2c1)C1CC1 | inconclusive: 50.1 µM [inhibitor, single point] | –
28 | Clc1cccc(-c2nnc(SCc3nc4ccccc4[nH]3)n2Cc2ccco2)c1 | inconclusive: 50.1 µM [inhibitor, partial curve, poor fit] | –
29 | COc1ccc(-c2ccc3oc(-c4ccc(OC)cc4)c(C#CC4(O)CCCCC4)c3c2)cc1 | inconclusive: 39.8 µM [inhibitor, partial curve, poor fit] | –
30 | O=C(Cc1ccc(-c2ccccc2)cc1)Oc1ccc(Cl)c2ccccc12 | – | inactive: -16.3%
31 | Cc1cc(C)n(-c2nc3cc(Cl)ccc3nc2NCc2cccnc2)n1 | – | inactive: -2.91%
32 | COc1ccc(-c2cc(=O)n(-c3ccc([N+](=O)[O-])cc3)[nH]2)cc1 | inconclusive: 39.8 µM [inhibitor, partial curve] | –
33 | COc1cc2c(cc1OC)CN(C(=S)Nc1ccccc1Cl)CC2 | inconclusive: 70.8 µM [inhibitor, partial curve, poor fit] | –
34 | Cc1oc(-c2ccc(C(=O)NCc3ccccc3)cc2)nc1CS(=O)(=O)c1ccccc1 | inconclusive: 89.1 µM [inhibitor, single point] | –
35 | CCOC(=O)c1c(N)sc2c1C1CCN2CC1 | inconclusive: 44.7 µM [inhibitor, single point] | –
36 | CC1(C(=O)NS(=O)(=O)c2cccs2)CCN1C(=O)C1CCCCC1 (centres undefined) | inconclusive: 50.1 µM [inhibitor, partial curve, poor fit] | –
37 | CCn1nccc1C(=O)N1CC(n2cc(C(=O)NCC3CC3)nn2)C1 | inconclusive: 8.91 µM [inhibitor, full curve] | –
38 | O=C1c2ccccc2NC(c2ccccc2)N1Cc1ccco1 (centres undefined) | inconclusive: 100 µM [inhibitor, partial curve, poor fit] | –
39 | CC(C)c1ccc(-c2csc(NC(=O)c3cccs3)c2C(=O)O)cc1 | – | inactive: -19.6%
40 | O=C(COc1ccc(Cl)cc1)N1CCN(c2cccc(C(F)(F)F)c2)CC1 | inconclusive: 3.98 µM [inhibitor, partial curve, poor fit] | –
41 | COCCN1Cc2cc(C(=O)OC)c3c(c2C1=O)c1ccccc1n3S(=O)(=O)c1ccc(C)cc1 | inconclusive: 15.8 µM [inhibitor, full curve, poor fit] | –
42 | CCOC(=O)C1=NNC(C(=O)OCC)C1c1ccccc1 (centres undefined) | inconclusive: 63.1 µM [inhibitor, partial curve, poor fit] | –

Look-ups from the results shown:
COCCN(CCOC)Cc1cc(=O)oc2cc(OC)ccc12 | Potency: inconclusive: 28.2 µM [inhibitor, partial curve]
Fc1ccc(NC(=S)N2CCCN(c3ccc(C(F)(F)F)cn3)CC2)c(F)c1 | activity change, negative = inhibition: inactive: 237%

Remaining list, next part

Row | SMILES | Potency | activity change, negative = inhibition
43 | NC(Cc1ccc(Cl)cc1)c1csc(Nc2cc(NCCCO)ncn2)n1 (centres undefined) | inconclusive: 39.8 µM [inhibitor, partial curve, poor fit] | –
44 | CC(C)N1C(=O)OCC12CCN(Cc1ccc3c(c1)CCO3)C2 (centres undefined) | inconclusive: 35.5 µM [inhibitor, partial curve, poor fit] | –
45 | Cn1c(=O)c(-c2cc(F)cc(F)c2)nc2cnc(Oc3ccccc3)nc21 | inconclusive: 28.2 µM [inhibitor, single point] | –
46 | CC(C)(C)n1ncc2c1NC(=O)CC21C(=O)Nc2cccc(Cl)c21 (centres undefined) | – | inactive: -23.7%
47 | COc1cc(OC)cc(N(C(=O)C2COc3ccccc3O2)C(C(=O)NC2CCCCC2)c2ccc(O)cc2)c1 (centres undefined) | inconclusive: 89.1 µM [inhibitor, partial curve, poor fit] | –
48 | COc1ccc(/C=N/OC(=O)Nc2ccc(Cl)cc2)c(OC)c1 | inconclusive: 50.1 µM [inhibitor, partial curve, poor fit] | –
49 | Cc1cc(C)n(CCNC(=O)c2ccccc2OC2CCN(S(C)(=O)=O)CC2)n1 | inconclusive: 100 µM [inhibitor, partial curve, poor fit] | –
50 | CCc1ccc(NC(=O)N2CCC(CN3CCc4ccccc4C3)CC2)cc1 | inconclusive: 44.7 µM [inhibitor, partial curve, poor fit] | –
51 | O=C(Nc1cccc(S(=O)(=O)N2CCCC2)c1)c1ccccc1Oc1ccccc1 | inconclusive: 44.7 µM [inhibitor, partial curve, poor fit] | –
52 | O=C(NCc1cccs1)C1Cc2c(-c3ccccc3Oc3ccccc3)ccnc2O1 (centres undefined) | inconclusive: 50.1 µM [inhibitor, partial curve, poor fit] | –
53 | Cc1nnc(NC(=O)c2ccc3ccccc3n2)s1 | inconclusive: 31.6 µM [inhibitor, partial curve] | –
54 | COc1ccc2oc(=O)cc(-c3cc4cccc(OC)c4o3)c2c1 | inactive | –
55 | CCCc1nc2oc(C(=O)c3ccccc3)c(N)c2c2c1COC(C)(C)C2 | inconclusive: 25.1 µM [inhibitor, partial curve, poor fit] | –
56 | Cc1ccc(C23CC4CC(CC(NC(=O)NC(C)(C)CO)(C4)C2)C3)cc1 | inconclusive: 0.316 µM [inhibitor, single point] | –
57 | CN(C)Cc1c(-c2ccc(Cl)cc2)nc2ccccn12 | – | inactive: -18.2%
58 | CCc1ccc(N2CC(C(=O)N/N=C/c3cc([N+](=O)[O-])ccc3O)CC2=O)cc1 (centres undefined) | inconclusive: 25.1 µM [inhibitor, partial curve] | –
59 | COc1ccc(Cc2n[nH]c(=S)n2Cc2ccccc2)cc1Cl | inconclusive: 50.1 µM [inhibitor, partial curve, poor fit] | –
60 | Cc1ccc(S(=O)(=O)c2nc(S(C)(=O)=O)sc2N2CCCCCC2)cc1 | inconclusive: 44.7 µM [inhibitor, partial curve, poor fit] | –
61 | CCN(Cc1nc(-c2ccc(C)cc2)no1)C(=O)c1ccco1 | inconclusive: 112 µM [inhibitor, partial curve, poor fit] | –
62 | CCn1cc(CN2CC(Oc3ccc(-c4noc(-c5cccnc5)n4)cc3)C2)cn1 | – | inactive: 44.2%
63 | CNC[C@H](O)c1ccc(O)c(O)c1 | inconclusive: 8.91 µM [inhibitor, partial curve, poor fit] and inconclusive: 6.31 µM [inhibitor, full curve, poor fit] and active: 1.4 µM | inactive: -23.8% [at 12.5 µM]
